Values from PubChem BioAssay AID1259314 (Drosophila RNAi Screening Center, 2017)

Screen: 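Transmembrane protein genes affecting ATP after manganese overload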 (primary screen)
Cell system: Drosophila S2R+ cells
Knock-down reagent: long dsRNA against Drosophila genes
Duration: 5 days (4 days knock-down, then 1 day metal exposure)
Challenge: manganese chloride added to 15 mM for 24 hours
Detection: 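Cellular ATP measured by luciferase light, scaled to the plate mean, averaged across replicates and z-scored over plates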
Direction: mean ATP z-score: higher = more ATP than the plate average, more viable cells under manganese
Hit rule: 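a mean ATP z-score past 1.5 in either direction is called active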
Meaning of the calls: active = strong ATP change, up or down; inactive = no strong ATP change
The deposit covers about 3,100 reagents; below is a random part of them. In the full data, 289 (9.3%) are marked active. 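Active includes both higher and lower ATP than plate average; check the z-score sign for direction.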 Unmarked entries are inactive. Names joined by + are all predicted targets of the reagent. No sequences are given here. Not stated in the record: the amount of reagent.

no.	gene	dsRNA	mean ATP z-score
1	Gr59c (Gustatory receptor 59c)	DRSC04185	0.661
2	Osi14 (Osiris 14)	DRSC12368	-1.48
3	Osi14 (Osiris 14)	DRSC26397	0.944
4	Dop1R1 (Dopamine 1-like receptor 1)	DRSC13021	-0.121
5	Dop1R1 (Dopamine 1-like receptor 1)	DRSC16652	0.844
6	Dop1R1 (Dopamine 1-like receptor 1)	DRSC23514	0.167
7	kar (karmoisin)	DRSC14496	-0.344
8	kar (karmoisin)	DRSC39488	-0.543
9	OtopLb (Otopetrin-like b)	DRSC00594	-0.856
10	OtopLb (Otopetrin-like b)	DRSC27337	-0.89
11	CG14196	DRSC19551	-0.171
12	CG14196	DRSC26030	-0.861
13	Sfxn2 (Sideroflexin 2)	DRSC10718	-0.0467
14	Sfxn2 (Sideroflexin 2)	DRSC39646	-0.152
15	Or47a (Odorant receptor 47a)	DRSC07491	-0.00348
16	Or43a (Odorant receptor 43a)	DRSC07485	-0.765
17	anne (anne boleyn)	DRSC17103	-1.03
18	anne (anne boleyn)	DRSC29952	-1
19	mthl14 (methuselah-like 14)	DRSC07865	-0.756
20	mthl14 (methuselah-like 14)	DRSC39645	-1.03
21	Gr47a (Gustatory receptor 47a)	DRSC06221	-0.747
22	Gr47a (Gustatory receptor 47a)	DRSC39508	-0.171
23	Serinc (Serine incorporator)	DRSC11296	0.422
24	CG12730	DRSC17885	-0.16
25	CG12730	DRSC39454	0.456
26	Nup93-1 (Nucleoporin 93kD-1)	DRSC19344	1.25
27	Nup93-1 (Nucleoporin 93kD-1)	DRSC39780	2.34 (active)
28	phtf	DRSC05023	1.34
29	phtf	DRSC28441	0.175
30	dome (domeless)	DRSC19583	1.18
31	dome (domeless)	DRSC36979	0.323
32	dome (domeless)	DRSC36980	-0.138
33	CG43672 + CG43673	DRSC19452	0.173
34	CG43672 + CG43673	DRSC20108	0.68
35	Octbeta1R (Octopamine beta1 receptor)	DRSC16134	0.137
36	Octbeta1R (Octopamine beta1 receptor)	DRSC30030	-0.352
37	Tsp42En (Tetraspanin 42En)	DRSC06185	3.15 (active)
38	CG13384	DRSC02258	1.86 (active)
39	laza (lazaro)	DRSC23330	-0.345
40	laza (lazaro)	DRSC29129	-1.39
41	blot (bloated tubules)	DRSC11328	-0.637
42	blot (bloated tubules)	DRSC26157	1.3
43	ACXE (Adenylyl cyclase X E)	DRSC00847	-0.485

Active calls, among the entries above:
gene	dsRNA	mean ATP z-score
Nup93-1 (Nucleoporin 93kD-1)	DRSC39780	2.34 (active)
Tsp42En (Tetraspanin 42En)	DRSC06185	3.15 (active)
CG13384	DRSC02258	1.86 (active)

Continued.
no.	gene	dsRNA	mean ATP z-score
44	ru (roughoid)	DRSC08258	-0.188
45	ru (roughoid)	DRSC28529	-0.208
46	CG12121	DRSC17816	0.0118
47	CG12121	DRSC39723	0.629
48	CG12783	DRSC14538	0.0403
49	CG17321	DRSC02598	-0.19
50	CG17321	DRSC25649	-0.91
51	Cnx99A (Calnexin 99A)	DRSC25426	3.7 (active)
52	GluRIIA (Glutamate receptor IIA)	DRSC03334	0.147
53	Tsp42Ef (Tetraspanin 42Ef)	DRSC06191	0.974
54	CG13995	DRSC22767	0.38
55	CG13995	DRSC28023	-1.03
56	Or88a (Odorant receptor 88a)	DRSC16770	0.448
57	Or88a (Odorant receptor 88a)	DRSC39423	-0.693
58	CG10073	DRSC05961	-1.33
59	CG16700	DRSC19755	-0.115
60	CG16700	DRSC39560	-0.436
61	ppk18 (pickpocket 18)	DRSC02216	1.03
62	ppk18 (pickpocket 18)	DRSC02217	2.58 (active)
63	ppk18 (pickpocket 18)	DRSC39853	0.17
64	CG31689	DRSC00734	1.4
65	CG31689	DRSC24715	-0.597
66	CG31103	DRSC22324	-0.566
67	Gr58c (Gustatory receptor 58c)	DRSC04136	-0.426
68	Vha16-4 (Vacuolar H[+] ATPase 16kD subunit 4)	DRSC07321	-0.575
69	ZnT63C (Zinc transporter 63C)	DRSC08032	0.534
70	ZnT63C (Zinc transporter 63C)	DRSC08033	2.45 (active)
71	ZnT63C (Zinc transporter 63C)	DRSC23528	2.08 (active)
72	brv3 (brivido-3)	DRSC25544	-0.49
73	Ipo9 (Importin 9)	DRSC16813	0.493
74	GrlHz (Gustatory receptor-like Holozoa)	DRSC04424	-0.392
75	GrlHz (Gustatory receptor-like Holozoa)	DRSC39675	0.334
76	sdk (sidekick)	DRSC18831	-0.246
77	sdk (sidekick)	DRSC39522	0.582
78	wgn (wengen)	DRSC19998	-0.579
79	wgn (wengen)	DRSC39695	1.16
80	PIG-Wa (Phosphatidylinositol glycan anchor biosynthesis class W a)	DRSC00728	0.649
81	Zdhhc8 (Zinc finger DHHC-type containing 8)	DRSC18122	-0.508
82	Zdhhc8 (Zinc finger DHHC-type containing 8)	DRSC39517	0.906
83	CG32983	DRSC22367	-1.39
84	tinc (tincar)	DRSC14799	-0.204
85	tinc (tincar)	DRSC16308	-0.384
86	PIG-F (Phosphatidylinositol glycan anchor biosynthesis class F)	DRSC11069	-0.693
87	PIG-F (Phosphatidylinositol glycan anchor biosynthesis class F)	DRSC27027	0.0864
88	rost (rolling stone)	DRSC03603	0.137
89	MFS1 (Major Facilitator Superfamily Transporter 1)	DRSC04115	-0.246
90	MFS1 (Major Facilitator Superfamily Transporter 1)	DRSC27926	0.147
91	Tsp42Ek (Tetraspanin 42Ek)	DRSC06187	0.698
92	Tsp42Ek (Tetraspanin 42Ek)	DRSC39861	0.918
93	PIG-U (Phosphatidylinositol glycan anchor biosynthesis class U)	DRSC02193	0.0819
94	PIG-U (Phosphatidylinositol glycan anchor biosynthesis class U)	DRSC28900	-0.754
95	Orct (Organic cation transporter)	DRSC16777	0.0206
96	Orct (Organic cation transporter)	DRSC25574	-1.57 (active)
97	tw (twisted)	DRSC18537	0.0584
98	tw (twisted)	DRSC39796	1.45
99	MsR1 (Myosuppressin receptor 1)	DRSC08615	-0.152
100	MsR1 (Myosuppressin receptor 1)	DRSC26467	0.372
101	Fur1 (Furin 1)	DRSC13707	-0.766
102	Fur1 (Furin 1)	DRSC16676	-0.428
103	CarT (Carcinine transporter)	DRSC03196	3.98 (active)
104	CarT (Carcinine transporter)	DRSC27070	0.536
105	Tsp42Ec (Tetraspanin 42Ec)	DRSC06192	-0.258
106	Tsp42Ec (Tetraspanin 42Ec)	DRSC26768	0.0195
107	CG17167	DRSC20902	0.237
108	CG17167	DRSC20903	-0.639
109	PIG-O (Phosphatidylinositol glycan anchor biosynthesis class O)	DRSC06123	0.448
110	PIG-O (Phosphatidylinositol glycan anchor biosynthesis class O)	DRSC39439	-0.786
